According to US20250296992A1 (Genmab, published 2025):
No constants are given. Whether binding was seen depends on the method and setting. Some binding calls cover weakened binding; strength is not graded here.

Chains of the proteins cited; added tags and fusions are not shown. Residues count along the entry.
UniProt Q9H5Y7, residues 27-841: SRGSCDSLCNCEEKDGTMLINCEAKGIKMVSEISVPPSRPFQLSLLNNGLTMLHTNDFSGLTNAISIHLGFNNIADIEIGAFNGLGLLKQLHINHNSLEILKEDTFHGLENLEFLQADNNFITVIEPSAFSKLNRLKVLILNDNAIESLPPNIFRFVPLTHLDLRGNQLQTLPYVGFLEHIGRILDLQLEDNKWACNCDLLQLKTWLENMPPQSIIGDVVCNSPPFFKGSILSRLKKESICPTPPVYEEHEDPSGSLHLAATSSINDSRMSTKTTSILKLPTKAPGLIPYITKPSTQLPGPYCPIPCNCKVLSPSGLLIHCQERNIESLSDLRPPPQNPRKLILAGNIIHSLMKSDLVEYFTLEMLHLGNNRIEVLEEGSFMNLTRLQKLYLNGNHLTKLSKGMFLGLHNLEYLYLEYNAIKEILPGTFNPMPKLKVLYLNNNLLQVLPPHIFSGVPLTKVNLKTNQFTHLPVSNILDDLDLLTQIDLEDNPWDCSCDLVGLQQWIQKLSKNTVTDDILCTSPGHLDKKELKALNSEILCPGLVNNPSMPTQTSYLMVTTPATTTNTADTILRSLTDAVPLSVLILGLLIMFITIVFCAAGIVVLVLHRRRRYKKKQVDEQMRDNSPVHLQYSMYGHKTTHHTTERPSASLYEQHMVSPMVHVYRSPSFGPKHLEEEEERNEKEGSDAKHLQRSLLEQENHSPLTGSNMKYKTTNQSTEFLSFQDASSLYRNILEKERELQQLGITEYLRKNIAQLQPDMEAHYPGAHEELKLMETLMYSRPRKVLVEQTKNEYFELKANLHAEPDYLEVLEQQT

Tests used:
human SLITRK6 on cells [1] = molecular target: T1, human SLITRK6 on cells (human, UniProt Q9H5Y7 27-841); test: flow cytometry on SW780 and RT4 cells
human SLITRK6 on cells [2] = molecular target: T1, human SLITRK6 on cells; test: flow cytometry on RT4 cells, PE-conjugated anti-human Fc
human SLITRK6 on cells [3] = molecular target: T1, human SLITRK6 on cells; test: flow cytometry on SCC-4 cells, PE-conjugated anti-human Fc
human SLITRK6 on cells [4] = molecular target: T1, human SLITRK6 on cells; test: flow cytometry on SW780 cells, PE-conjugated anti-human Fc
human SLITRK6 on cells [5] = molecular target: T1, human SLITRK6 on cells; test: flow cytometry on 293F-huSLITRK6-C9 cells, PE-conjugated anti-human Fc
human SLITRK6 on cells [6] = molecular target: T1, human SLITRK6 on cells; test: flow cytometry on CHP-212 cells, PE-conjugated anti-human Fc
human SLITRK6 on cells [7] = molecular target: T1, human SLITRK6 on cells; test: flow cytometry on KYSE-30 cells, PE-conjugated anti-human Fc
human SLITRK6 on cells [8] = molecular target: T1, human SLITRK6 on cells; test: flow cytometry on RT112/84 cells, PE-conjugated anti-human Fc
human SLITRK6 on cells [9] = molecular target: T1, human SLITRK6 on cells; test: flow cytometry on KYSE-410 cells, PE-conjugated anti-human Fc
human SLITRK6 on cells [10] = molecular target: T1, human SLITRK6 on cells; test: flow cytometry on CHP-212 cells (printed CHP212), PE-conjugated anti-human Fc
human SLITRK6 on cells [11] = molecular target: T1, human SLITRK6 on cells; test: flow cytometry on 293F-huSLITRK6 cells, PE-conjugated anti-human Fc
human SLITRK6 on cells [12] = molecular target: T1, human SLITRK6 on cells; test: flow cytometry on RT4, SW780, RT112/84, CHP-212, KYSE-30, KYSE-410 and 293F-huSLITRK6 cells

Measured: binding

B1: Sirtratumab (antibody, V domains shown)
VH: QVQLVESGGGVVQPGRSLRLSCAASGFTFSSYGMHWVRQAPGKGLEWVAVIWYDGSNQYYADSVKGRFTISRDNSKNTLFLQMHSLRAEDTAVYYCARGLTSGRYGMDWGQGTTVTVSS
VL: DIVMTQSPLSLPVTPGEPASISCRSSQSLLLSHGFNYLDWYLQKPGQSPQLLIYLGSSRASGVPDRFSGSGSGTDFTLKISRVEAEDVGLYYCMQPLQIPWTFGQGTKVEIK
notes: Prior-art benchmark antibody; also called Sirtratuzumab
binds: all assays above

B2: AGS15E (antibody, V domains shown)
VH: QVQLVESGGGVVQPGRSLRLSCAASGFTFSSYGMHWVRQAPGKGLEWVAVIWYDGSNQYYADSVKGRFTISRDNSKNTLFLQMHSLRAEDTAVYYCARGLTSGRYGMDWGQGTTVTVSS
VL: DIVMTQSPLSLPVTPGEPASISCRSSQSLLLSHGFNYLDWYLQKPGQSPQLLIYLGSSRASGVPDRFSGSGSGTDFTLKISRVEAEDVGLYYCMQPLQIPWTFGQGTKVEIK
modifications: drug conjugate; drug-linker and positions not given
notes: also called ADC of Sirtratumab
not listed: human SLITRK6 on cells [3] | human SLITRK6 on cells [5] | human SLITRK6 on cells [10]
binds: all other assays above
